In patent US11291659B2, “P38 kinase inhibitors reduce DUX4 and downstream gene expression for the treatment of FSHD” (Fulcrum Therapeutics, Inc., priority 2017, dated 2022):
At least one compound was matched to its structure with a doubt left.

Test system: DUX4 target genes
Experiment: RNA-seq profiling of FSHD myotubes
Assay type: cell-based, Human
Conditions: 1 μM vs DMSO
From the text: The 40 bp single-end reads from Illumina had good quality by checking with FastQC (http://www.bioinformatics.babraham.ac.uk/projects/fastqc/). Reads were mapped to hg19 using TopHat v2.1.1. The gene model for TopHat was created by merging known Gene in gtf format with kgXref table. Both known Gene and kgXref were downloaded from UCSC table browser in hg19 assembly. The read counts were obtained using feature Counts function from Subread package with strandness option as −r 2. Reads were normalized with DESeq2. […] Consequently, Combat was used for reducing this batch effect. Calculated standard RPKM expression values. Total gene signature is very small and defined at standard statistical cutoffs: 86/19,799 mRNA genes. DUX4-regulated gene signature is majority of total signature: 77/86 mRNA genes=90%. Non-DUX4 regulated genes is minority of total signature with moderate fold changes: 9/86 mRNA genes=10%; 2-2.7×log FC.
In addition, gene expression was also determined in wild type myotubes treated with DMSO. Three replicates for each condition were analyzed by RNA-seq and genes were clustered by the direction and intensity of change.

Compound: Cc1c(F)cc(C(=O)NC2CC2)cc1-c1ccc(C(=O)NCC(C)(C)C)cn1 [FTX-1821]
- total gene signature (differentially expressed mRNA genes): 86/19,799 mRNA genes
